# Experimental data taken from doi:10.1101/773796.
# These are yes or no findings as the source states them, for the method shown. Binding seen in cells or lysates may run through a third protein. Some binding calls cover weakened binding; strength is not graded here. Sequences can lack the tags named with a protein.
# B1: GFP-tagged Staufen (protein, UniProt P25159 1-1026)
# chain: MQHNVHAARPAPHIRAAHHHSHSHAHMHLHPGMEQHLGPSLQQQQQPPPPPQQPPHRDLHARLNHHHLHAQQQQQQQTSSNQAGAVAAAGAAYHHGNINSNSGSNISSNSNQMQKIRQQHQHLSSSNGLLGNQPPGPPPQAFNPLAGNPAALAYNQLPPHPPHHMAAHLGSYAAPPPHYYMSQAKPAKYNHYGSNANSNSGSNNSNSNYAPKAILQNTYRNQKVVVPPVVQEVTPVPEPPVTTNNATTNSTSNSTVIASEPVTQEDTSQKPETRQEPASADDHVSTGNIDATGALSNEDTSSSGRGGKDKTPMCLVNELARYNKITHQYRLTEERGPAHCKTFTVTLMLGDEEYSADGFKIKKAQHLAASKAIEETMYKHPPPKIRRSEEGGPMRTHITPTVELNALAMKLGQRTFYLLDPTQIPPTDSIVPPEFAGGHLLTAPGPGMPQPPPPPAYALRQRLGNGFVPIPSQPMHPHFFHGPGQRPFPPKFPSRFALPPPLGAHVHHGPNGPFPSVPTPPSKITLFVGKQKFVGIGRTLQQAKHDAAARALQVLKTQAISASEEALEDSMDEGDKKSPISQVHEIGIKRNMTVHFKVLREEGPAHMKNFITACIVGSIVTEGEGNGKKVSKKRAAEKMLVELQKLPPLTPTKQTPLKRIKVKTPGKSGAAAREGSVVSGTDGPTQTGKPERRKRLNPPKDKLIDMDDADNPITKLIQLQQTRKEKEPIFELIAKNGNETARRREFVMEVSASGSTARGTGNSKKLAKRNAAQALFELLEAVQVTPTNETQSSEECSTSATMSAVTAPAVEATAEGKVPMVATPVGPMPGILILRQNKKPAKKRDQIVIVKSNVESKEEEANKEVAVAAEENSNNSANSGDSSNSSSGDSQATEAASESALNTSTGSNTSGVSSNSSNVGANTDGNNHAESKNNTESSSNSTSNTQSAGVHMKEQLLYLSKLLDFEVNFSDYPKGNHNEFLTIVTLSTHPPQICHGVGKSSEESQNDAASNALKILSKLGLNNAMK
# Molecular target: T1, V5-PR36 (proline-arginine dipeptide repeat protein, 36 repeats)
# T1 sequence: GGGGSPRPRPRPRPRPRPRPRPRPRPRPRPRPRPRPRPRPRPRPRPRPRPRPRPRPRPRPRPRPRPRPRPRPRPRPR
# Test: co-IP
binder,measurement,value
B1,binding,binds
